Results taken from patent publication US20020115631A1.
These are yes or no findings as the source states them, for the method shown. Some binding calls cover weakened binding; strength is not graded here. Tags and fused reporters may be left off the sequences shown.

Assays:
[1] = target: GST-Bcl-2 (human) [GST: P08515]; test: ELISA, 6HBad coated on the plate, GST fusion in solution, anti-GST detection
[2] = target: GST-Bcl-2 (human) [GST: P08515]; test: ELISA (figure legend)

binding [1]: binds
binding [2]: binds
B1: 6HBad fusion protein (full length human Bad with N-terminal six residue Histidine tag, construct pET-15 6H Bad) (protein, not shown: small tags and cut ends)
chain: MFQIPEFEPSEQEDSSSAERGLGPSPAGDGPSGSGKHHRQAPGLLWDASHQQEQPTSSSHHGGAGAVEIRSRHSSYPAGTEDDEGMGEEPSPFRGRSRSAPPNLWAAQRYGRELRRMSDEFVDSFKKGLPRPKSAGTATQMRQSSSWTRVFQSWWDRNLGRGSSAPSQ
